The assay has as its target EpEX TYloop^mut (K83D, P84D, L88D) (human) (UniProt P16422). The assay is described as follows: SEC-MALS; SEC with right- and low-angle laser light scattering detectors (SEC-RALLS/LALLS, OMNISEC), Superdex 200 Increase 10/300 GL, 150 μg of protein injected per run, 25 °C, 0.5 ml/min, 20 mM HEPES, pH 7.5, 100 mM NaCl; dimer to monomers; both purified.

Results are given in words; binding and its absence hold for the method and conditions named.

B1: EpEX TYloop^mut (K83D, P84D, L88D) (domain or fragment, UniProt P16422 24-265)
chain: QEECVCENYKLAVNCFVNNNRQCQCTSVGAQNTVICSKLAAKCLVMKAEMQGSKLGRRADDEGADQNNDGLYDPDCDESGLFKAKQCQGTSMCWCVNTAGVRRTDKDTEITCSERVRTYWIIIELKHKAREKPYDSKSLRTALQKEITTRYQLDPKFITSILYENNVITIDLVQQSSQKTQNDVDIADVAYYFEKDVKGESLFHSKKMDLTVNGEQLDLDPGQTLIYYVDEKAPEFSMQGLKLE
For the molecule B1, the binding entry is given as “no binding (tested: 1.5 mg/ml (~50 µM))”.

(Values after paper PMC8142927, “Destabilization of EpCAM dimer is associated with increased susceptibility towards cleavage by TACE” (PeerJ, 2021).)
